Laboratory results reported in US20140087991A1, “PEPTIDE PRODRUGS” (The Johns Hopkins University, priority 2006, published 2014).
Some results were stated once for a whole list of compounds, not compound by compound.

Biological target: T1, His-tagged FAP (Homo sapiens, UniProt Q12884)
T1 construct: the extracellular domain of FAP was cloned with a His-6 tag; made in house
T1 sequence (Q12884 26-760 limits assumed): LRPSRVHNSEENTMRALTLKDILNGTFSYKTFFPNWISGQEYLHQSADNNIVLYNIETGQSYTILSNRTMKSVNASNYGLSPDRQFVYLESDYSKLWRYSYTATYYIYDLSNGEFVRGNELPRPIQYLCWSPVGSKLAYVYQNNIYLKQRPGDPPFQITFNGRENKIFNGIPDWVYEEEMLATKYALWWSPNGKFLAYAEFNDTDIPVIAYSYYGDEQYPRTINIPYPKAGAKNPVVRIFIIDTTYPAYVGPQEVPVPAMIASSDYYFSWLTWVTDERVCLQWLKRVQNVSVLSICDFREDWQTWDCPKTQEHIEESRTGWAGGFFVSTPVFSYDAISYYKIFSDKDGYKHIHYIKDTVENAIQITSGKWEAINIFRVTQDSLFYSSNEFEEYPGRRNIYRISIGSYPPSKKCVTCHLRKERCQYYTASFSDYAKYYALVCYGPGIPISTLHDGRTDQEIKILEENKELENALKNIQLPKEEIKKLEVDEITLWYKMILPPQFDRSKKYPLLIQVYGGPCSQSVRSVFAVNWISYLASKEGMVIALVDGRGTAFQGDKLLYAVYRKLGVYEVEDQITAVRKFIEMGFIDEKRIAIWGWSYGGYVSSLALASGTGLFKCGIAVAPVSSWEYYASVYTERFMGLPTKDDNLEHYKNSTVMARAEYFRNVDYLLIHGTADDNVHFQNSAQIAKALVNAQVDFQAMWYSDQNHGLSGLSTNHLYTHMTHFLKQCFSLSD
Test: FAP hydrolysis of MCA/DNP fluorescence quenched peptide substrates
Format: biochemical
Protocol: Quenched substrates were prepared by using the MCA/DNP fluorophore/quencher pair. Synthesis of peptides was done using standard Fmoc solid phase coupling on NovaTag™ Dnp resin with a substitution level of 0.4 mmole/g (Novabiochem, San Diego, Calif.). N-terminal capping was done twice overnight with N-(7-methoxycoumarin-4-acetyloxy)succinimide (MCA-Osu) and 1-Hydroxybenzotriazole (HOBt) in N-Methyl 2 Pyrrolidone (NMP). Peptides were cleaved with 95% TFA, 2.5% TIS and 2.5% water. The purity and mass of each quenched peptide was confirmed by Reversed Phase-HPLC and MALDI-TOF analysis.
Quenched peptide substrates were weighed and dissolved in DMSO to obtain a final concentration of 50 mM and were stored at −20° C. until later use. Dilutions (e.g. 200 μM, 100 μM, 50 μM, 25 μM) were prepared in duplicates in the reaction buffer. His-tagged FAP was added to a final concentration of 5 nM. Release of free MCA was measured at excitation 355 nm and emission 460 nm in a 96-well fluorescence plate reader. Controls consisted of substrates in buffer±BSA.
On the basis of the 8.5 kDa gelatin cleavage map a series of fluorescence quenched substrates were prepared (colored sequences in Table 3) by using the Methoxycoumarin (MCA)/Dinitrophenyl (DNP) FRET combination (52). Synthesis of peptides was done using standard Fmoc solid phase peptide synthesis coupling on a NovaTag™ Dnp resin with a substitution level of 0.4 mmole/g (Novabiochem, San Diego, Calif.). N-terminal capping was done twice overnight with N-(7-methoxycoumarin-4-acetyloxy)succinimide (MCA-Osu) and 1-Hydroxybenzotriazole (HOBt) in N-Methyl 2 Pyrrolidone (NMP). This synthetic method yields peptides with sequence MCA-AA1-AA2-AA3-AAx-DNP. These studies supported substrate ranking based on normalized ion current and confirmed that FAP prefers to cleave after proline but can also cleave after other amino acids in the P1 position, FIG. 10A.

Row | Substance | substrate concentration at which hydrolysis was seen | substrate concentration needed to detect hydrolysis
1 | PAGP (MCA/DNP quench labels) [substrate previously used for prodrug design for FAP, made as MCA/DNP quenched substrate, reference compound] | > 200 µM | > 200 µM
2 | GARGQA (MCA/DNP quench labels) [tested as MCA/DNP fluorescence quenched substrate] | > 200 µM | > 200 µM
